Reference: patent US20240225971A1 (Genomatica, Inc., priority 2021, published 2024)

Assays:
[1] = Life Cycle Assessment (LCA) based on ISO 14040:2006
[2] = Qualitative review of bioBG by a master perfumer
[3] = Comparative organoleptic blotter evaluation (odor rating 1-10) of fragrance ingredients in diluents; details: 1-10 scale
[4] = BioBG versus Petroleum-based BG

Structure (SMILES): CC(O)CCO (centres unmarked) [bioBG, 1,3-butylene glycol]
- Percent Improvement, Global Warming Impact [1, 4]: 50.8%
- Percent Improvement, Primary Energy Demand from Non-Renewable Sources [1, 4]: 46.3%
- Global Warming Impact ([1]; listed as BioBG): 1.86 Kg CO2 - eq
- Primary Energy Demand from Non-Renewable Sources ([1]; listed as BioBG): 58.5 mJ
- odor of the diluent alone as perceived by master perfumer ([2]; bioBG without fragrance ingredients): a sweet odor and a slight green note in the background
- effect of diluent on scent of fragrance ingredients ([2]; several common fragrance ingredients at various dilutions): did not suppress the fragrance of the fragrance ingredients
- Average odor value over all listed fragrance ingredients at 0.01% ([3]; 0.01% ingredient in the diluent): 9.25
- Average odor value over all listed fragrance ingredients at 0.1% ([3]; 0.1% ingredient in the diluent): 8.98
- Average odor value over all listed fragrance ingredients at 1% ([3]; 1% ingredient in the diluent): 9.00
- Average odor value over all listed fragrance ingredients at 10% ([3]; 10% ingredient in the diluent): 7.88
- Average of the average odor ratings over all listed fragrance ingredients, per diluent ([3]; all ingredients, all dilutions): 9.05
